# Laboratory results from PubChem BioAssay AID504444 (National Center for Advancing Translational Sciences (NCATS), 2011).
# The whole screen tested about 360,000 compounds, of which about 7,500 (2.1%) were called active. The shares of active, inactive and inconclusive entries below differ from those in the screen. Calls follow the shape of the dose curve; as a rule, active = well fitted inhibition curve with a large enough effect; inconclusive = small, poorly fitted or top-dose-only effect, or effect the other way; inactive = flat fitted curve, though single readings scatter. Where the call is inconclusive, the potency comes from a doubtful curve fit.
# Test: Nrf2 qHTS screen for inhibitors; also: nearly all actives have a fitted effect of over 60% in size
# Conditions: A549 ARE-Fluc reporter, luciferase luminescence, 18-24 h; series mostly up to 46 µM
# How it was run: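 Nrf2 function is reported as luminescence of an ARE-controlled luciferase in A549 cells. Compounds were tested at several concentrations, and a CellTiter-Fluor read on the same wells flagged cytotoxicity.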
# Potency is read from the fitted curve at half-maximal effect.
row,SMILES,Potency
1,CCOc1ccc(NC(=O)CN(c2cccc(C(F)(F)F)c2)S(C)(=O)=O)cc1,"inconclusive: 29.1 µM [falling, partial curve, poor fit]"
2,CCCCNC(=O)c1cc(S(=O)(=O)N2CCCCC2)oc1C,"inconclusive: 32.6 µM [falling, single point]"
3,CCOC(=O)C1CCCN(C(=O)COc2ccc(C(=O)c3ccc(F)cc3)cc2)C1 (stereo not given),"inconclusive: 25.9 µM [falling, single point]"
4,Cc1ccc(N(C(=O)c2csnn2)C(C(=O)NC2CCCCC2)c2ccco2)cc1 (stereo not given),"inconclusive: 8.2 µM [falling, partial curve]"
5,CN(CC(=O)Nc1ccc(Cl)c(C(F)(F)F)c1)C(=O)C1(c2ccccc2)CC1,"inconclusive: 18.4 µM [falling, single point]"
6,Cc1ccc(NC(=O)CN2C(=O)COc3ccc(S(=O)(=O)N4CCCCCC4)cc32)cc1Cl,"inconclusive: 23.1 µM [falling, single point]"
7,COc1ccc(OC)c(S(=O)(=O)NCc2cn3c(C)csc3n2)c1,"inconclusive: 4.61 µM [falling, single point]"
8,CCCCCCCCCCCCCCCC(=O)OCC1OC(n2ccc(N)nc2=O)C(O)C1O (stereo not given),"inconclusive: 1.03 µM [falling, full curve, poor fit]"
9,O=C(Cc1ccccc1)Nc1c(C(=O)c2ccccc2)oc2ccccc12,"inconclusive: 6.51 µM [falling, single point]"
10,COc1ccc(C(CCN(Cc2ccc(OC)c(OC)c2)C(C)=O)c2ccccc2)cc1 (stereo not given),"inconclusive: 3.66 µM [falling, partial curve, poor fit]"
11,S=c1[nH]nc(Nc2ccccc2)s1,"inconclusive: 6.51 µM [activator, partial curve]"
12,O=C(Nc1nnc(C2CC2)s1)c1ccco1,"inconclusive: 9.2 µM [activator, partial curve]"
13,Cc1cc(Br)ccc1OCC(=O)N(Cc1nc(-c2ccccc2)no1)C(C)C,active: 18.4 µM
14,CCN(C(=O)CSc1nc2cc(C(F)(F)F)ccc2n1Cc1ccccc1)C1CCS(=O)(=O)C1 (stereo not given),"inconclusive: 23.1 µM [falling, single point]"
15,Cc1ccc(-n2c(Cc3cccn3C)nnc2SCC(=O)N2CCN(c3ccccc3)CC2)cc1,"inconclusive: 25.9 µM [falling, single point]"
16,Cc1nn(CCC(N)=O)c2nc(-c3cccs3)cc(C(F)(F)F)c12,"inconclusive: 32.6 µM [falling, single point]"
17,Cc1ccc(NC(=O)CSc2nnc(-c3nnn(-c4ccc(F)cc4)c3C)o2)cc1Br,inactive
18,CN(CCc1ccccc1)C(=O)c1ccc(NC(=O)Cc2ccc(NC(=O)C3CCN(C(=O)C4CC4)CC3)cc2)cc1,"inconclusive: 29.1 µM [activator, single point]"
19,Cc1ccc(C(=O)NNC(=S)Nc2cccc3ccccc23)s1,"inconclusive: 2.31 µM [activator, full curve]"
20,Cc1ccccc1OCC(=O)Nc1cccc2nsnc12,"inconclusive: 0.0731 µM [activator, full curve, poor fit]"
21,Cc1cc2c(s1)c1cnn(Cc3c(F)ccc(C)c3F)c(=O)c1n2C,inactive
22,CC1CN(c2ccc([N+](=O)[O-])cc2Cl)CCN1S(C)(=O)=O (stereo not given),"inconclusive: 23.1 µM [falling, single point]"

row,SMILES,Potency
1,N#C/C(=C\c1ccc(-c2ccccc2)cc1)c1nc(-c2ccco2)cs1,"inconclusive: 23.1 µM [falling, single point]"
2,Cc1ccc(NC(=S)NCCc2c[nH]c3ccccc23)c(C)c1,inactive
3,Cc1ccc(SCCN2CCN(CC(C)C)CCC2=O)cc1,"inconclusive: 14.6 µM [activator, partial curve, poor fit]"
4,COc1ccccc1NS(=O)(=O)c1cccc(C(=O)NCC(c2cccs2)N(C)C)c1 (stereo not given),"inconclusive: 23.1 µM [falling, partial curve, poor fit]"
5,O=C(/C=C/c1cccs1)N1CCc2ccccc21,"inconclusive: 6.51 µM [activator, partial curve]"
6,Cc1cc(C)cc(-n2nnnc2SCC(=O)Nc2nc(-c3ccc(F)cc3)cs2)c1,"inconclusive: 25.9 µM [falling, single point]"
7,COc1ccc(-c2csc(-n3ncc(C(=O)O)c3C(F)(F)F)n2)cc1,"inconclusive: 23.1 µM [activator, partial curve]"
8,Cc1ccc(S(=O)(=O)c2nnn3c2nc(NCc2ccc4c(c2)OCO4)c2sccc23)cc1,inactive
9,CCOC(=O)c1c(Nc2ccc(O)cc2)nnc(-c2ccccc2)c1-c1ccccc1,inactive
10,CSc1ccc(CNC(=O)C2CCC(=O)N(Cc3cccc(F)c3)C2)cc1 (stereo not given),inactive
11,COc1ccc(CC(=O)N/N=C/c2ccc(Cl)s2)cc1OC,"inconclusive: 7.31 µM [falling, partial curve]"
12,COc1ccc(C(=O)NNC(=S)NC(=O)c2ccccc2[N+](=O)[O-])cc1,inactive
13,COc1ccc(CCC(=O)Nc2nc3ccccc3[nH]2)cc1,"inconclusive: 2.59 µM [activator, full curve]"
14,O=[N+]([O-])c1cccc(-c2csc(Nc3ccccc3)n2)c1,"inconclusive: 29.1 µM [falling, single point]"
15,CC(C)Cc1nn2c(=O)cc(COC(=O)CNC(=O)c3ccc(C(C)(C)C)cc3)nc2s1,"inconclusive: 29.1 µM [activator, single point]"
16,CC(=O)c1cc(C)c(OC(=O)c2ccccc2)c(C)c1,"inconclusive: 23.1 µM [falling, single point]"
17,CCOC(=O)CNc1nc(Cl)nc(NC(C)(C)C)n1,"inconclusive: 6.51 µM [activator, single point]"
18,COC(=O)c1ccc(CN2CCC(Oc3cccc(C(=O)N4CCOCC4)c3)CC2)cc1,"inconclusive: 29.1 µM [falling, single point]"
19,Cc1cccc(N2CCN(C(c3cccs3)c3nnnn3C(C)(C)C)CC2)c1C (stereo not given),inactive
20,CCCNC(=O)Cn1cnc2sc(C(=O)N3CCN(Cc4ccc5c(c4)OCO5)CC3)c(C)c2c1=O,inactive
21,CCOCCCNC(=O)/C(C#N)=C/c1cc(Br)c(O)c(Br)c1,"inconclusive: 20.6 µM [falling, single point]"
22,Cn1nc(/C=C/c2ccccc2)ccc1=O,"inconclusive: 4.11 µM [activator, full curve, poor fit]"

row,SMILES,Potency
1,CCOC(=O)C(=CNc1cc(Cl)c(-c2ccco2)c(Cl)c1)C(=O)OCC,inactive
2,Cc1cc(C)cc(NC(=O)CN2CCCN(S(=O)(=O)c3ccc(Br)s3)CC2)c1,"inconclusive: 20.6 µM [falling, single point]"
3,CCOc1ccc(-n2c(SCC(=O)Nc3ccc(OC)cc3OC)nc3c(c2=O)SCC3)cc1,"inconclusive: 29.1 µM [falling, single point]"
4,CCOc1cc(C(=O)NC(C)C2CC3CCC2C3)cc(OCC)c1OCC (stereo not given),"inconclusive: 0.82 µM [falling, full curve, poor fit]"
5,c1ccc(CCn2cnc3ccccc32)cc1,"inconclusive: 29.1 µM [activator, single point]"
6,O=C(c1ccccc1[N+](=O)[O-])N(CCc1ccccc1)Cc1ccccc1,"inconclusive: 29.1 µM [falling, single point]"
7,COc1ccc(C(CCN2CCCCC2)c2c(OC)cc(OC)c3c(-c4ccccc4)cc(=O)oc23)cc1 (stereo not given),inactive
8,Cc1ccc(-c2nn(-c3ccccc3)cc2/C=C/C(=O)Nc2nccs2)cc1,"inconclusive: 14.6 µM [falling, partial curve, poor fit]"
9,O=C(NCCCN1CCN(c2ccc(F)cc2)CC1)c1cc2c(Cl)nc3ccccc3c2s1,inactive
10,Cc1cc(=O)n(Cc2ccc(F)cc2Cl)c2c1c(C)nn2C,"inconclusive: 2.91 µM [falling, partial curve, poor fit]"
11,CC(C)c1ccc(-c2noc(SCC(=O)N3CCCCC3C)n2)cc1 (stereo not given),"inconclusive: 16.4 µM [falling, single point]"
12,Cc1csc(CNc2ncnc3ccc(-c4ccc5c(c4)OCO5)cc23)n1,inactive
13,O=C(NCC1CCCCC1)c1cccc(-c2ccc(O)cc2)c1,"inconclusive: 9.2 µM [falling, partial curve]"
14,CCOC(=O)C1=C(C)N(C[C@@H]2CC[C@@H](Cc3ccc(-c4ccccc4)cc3)O2)C(=O)NC1c1ccc(C(F)(F)F)cc1 (stereo not given in full),"inconclusive: 16.4 µM [falling, partial curve]"
15,CCOC(=O)c1c(C)[nH]c(C(=O)CSc2nnnn2-c2ccc(C)cc2)c1C,"inconclusive: 32.6 µM [falling, single point]"
16,CCCC/C=C1\CCc2c([nH]c3ccccc23)C1=O,"inconclusive: 16.4 µM [activator, single point]"
17,COc1ccc(S(=O)(=O)Nc2ccc3c(c2)OCCO3)cc1Cl,"inconclusive: 20.6 µM [falling, single point]"
18,O=S(=O)(NCc1ccc2c(c1)OCO2)c1ccc2c(c1)oc1ccccc12,active: 20.6 µM
19,CC(=O)Nc1ccc(S(=O)(=O)N2CCN(c3cc(C)nc4ncnn34)CC2)cc1,"inconclusive: 29.1 µM [activator, partial curve, poor fit]"
20,CCOCCn1c(=O)c2c(nc3n2CCCN3CCc2ccccc2)n(C)c1=O,"inconclusive: 5.17 µM [falling, full curve, poor fit]"
21,CCCc1cc(-c2n[nH]c(=S)n2CC)c2ccccc2n1,"inconclusive: 1.46 µM [falling, full curve]"

# Five of the compounds above, with bars between the fields.
row | SMILES | Potency
1 | CCOC(=O)C(=CNc1cc(Cl)c(-c2ccco2)c(Cl)c1)C(=O)OCC | inactive
2 | Cc1cc(C)cc(NC(=O)CN2CCCN(S(=O)(=O)c3ccc(Br)s3)CC2)c1 | inconclusive: 20.6 µM [falling, single point]
8 | Cc1ccc(-c2nn(-c3ccccc3)cc2/C=C/C(=O)Nc2nccs2)cc1 | inconclusive: 14.6 µM [falling, partial curve, poor fit]
10 | Cc1cc(=O)n(Cc2ccc(F)cc2Cl)c2c1c(C)nn2C | inconclusive: 2.91 µM [falling, partial curve, poor fit]
16 | CCCC/C=C1\CCc2c([nH]c3ccccc23)C1=O | inconclusive: 16.4 µM [activator, single point]
